# PMC9666523
# Sequences of proteins named here, by UniProt entry; tags and fusion partners are left off.
# UniProt Q8CHG3: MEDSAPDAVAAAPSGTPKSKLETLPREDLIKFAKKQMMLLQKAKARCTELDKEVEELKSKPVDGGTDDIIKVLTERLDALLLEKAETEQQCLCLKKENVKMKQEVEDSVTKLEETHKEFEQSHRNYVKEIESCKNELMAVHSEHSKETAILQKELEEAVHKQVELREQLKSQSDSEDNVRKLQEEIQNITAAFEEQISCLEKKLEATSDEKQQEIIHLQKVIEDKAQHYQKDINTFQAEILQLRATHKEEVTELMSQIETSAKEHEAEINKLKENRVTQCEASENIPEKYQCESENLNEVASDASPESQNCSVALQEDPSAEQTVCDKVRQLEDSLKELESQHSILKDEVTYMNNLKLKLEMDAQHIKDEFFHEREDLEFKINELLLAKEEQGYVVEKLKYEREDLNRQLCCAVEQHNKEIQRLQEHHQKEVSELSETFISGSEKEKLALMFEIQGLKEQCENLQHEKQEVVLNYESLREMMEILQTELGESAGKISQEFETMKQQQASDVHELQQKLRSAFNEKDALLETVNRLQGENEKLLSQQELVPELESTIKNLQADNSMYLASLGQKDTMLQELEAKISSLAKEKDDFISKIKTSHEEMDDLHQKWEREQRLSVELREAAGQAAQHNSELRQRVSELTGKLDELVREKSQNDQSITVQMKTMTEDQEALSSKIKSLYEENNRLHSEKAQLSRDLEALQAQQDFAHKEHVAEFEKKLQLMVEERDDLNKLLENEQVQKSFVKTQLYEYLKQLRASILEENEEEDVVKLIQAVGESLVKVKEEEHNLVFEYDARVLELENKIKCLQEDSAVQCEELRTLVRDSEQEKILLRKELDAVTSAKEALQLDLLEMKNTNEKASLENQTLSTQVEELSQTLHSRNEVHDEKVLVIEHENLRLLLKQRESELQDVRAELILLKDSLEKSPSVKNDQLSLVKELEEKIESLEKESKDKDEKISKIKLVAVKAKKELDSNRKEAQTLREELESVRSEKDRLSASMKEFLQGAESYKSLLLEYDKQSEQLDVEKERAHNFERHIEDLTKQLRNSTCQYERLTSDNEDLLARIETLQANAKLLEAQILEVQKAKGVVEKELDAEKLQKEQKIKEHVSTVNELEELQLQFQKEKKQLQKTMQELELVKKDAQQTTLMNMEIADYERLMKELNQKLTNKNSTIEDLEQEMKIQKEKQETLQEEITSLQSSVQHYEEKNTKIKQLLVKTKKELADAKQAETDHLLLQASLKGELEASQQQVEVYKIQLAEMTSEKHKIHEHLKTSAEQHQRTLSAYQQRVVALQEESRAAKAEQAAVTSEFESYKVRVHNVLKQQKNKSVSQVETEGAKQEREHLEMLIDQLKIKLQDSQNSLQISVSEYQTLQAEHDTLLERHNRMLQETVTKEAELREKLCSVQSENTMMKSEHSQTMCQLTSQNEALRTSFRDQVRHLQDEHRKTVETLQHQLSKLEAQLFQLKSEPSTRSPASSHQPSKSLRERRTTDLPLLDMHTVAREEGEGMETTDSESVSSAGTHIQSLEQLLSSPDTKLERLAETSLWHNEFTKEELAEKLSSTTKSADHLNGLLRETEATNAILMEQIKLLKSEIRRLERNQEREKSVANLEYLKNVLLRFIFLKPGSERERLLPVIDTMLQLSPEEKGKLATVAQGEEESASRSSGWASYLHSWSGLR
# UniProt P59279: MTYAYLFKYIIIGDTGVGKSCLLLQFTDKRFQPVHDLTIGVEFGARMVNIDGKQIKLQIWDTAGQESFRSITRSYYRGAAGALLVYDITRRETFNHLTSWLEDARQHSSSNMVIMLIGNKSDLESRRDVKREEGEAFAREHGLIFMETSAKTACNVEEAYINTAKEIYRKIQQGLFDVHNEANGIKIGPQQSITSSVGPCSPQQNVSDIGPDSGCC
# UniProt P61294: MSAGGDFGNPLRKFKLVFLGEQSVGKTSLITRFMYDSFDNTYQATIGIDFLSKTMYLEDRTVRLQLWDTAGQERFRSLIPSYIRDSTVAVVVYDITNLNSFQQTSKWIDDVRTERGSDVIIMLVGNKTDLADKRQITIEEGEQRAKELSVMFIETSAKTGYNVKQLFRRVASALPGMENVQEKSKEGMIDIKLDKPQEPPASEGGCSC
# Results are given in words; binding and its absence hold for the method and conditions named. Binding seen in cells or lysates may run through a third protein. Some results given as binding are weak or reduced against the parent protein; the word gives no strength. For some of these results: Where a sequence is shown, tags or fusion partners need not be part of it.
# Key:
# [1] = target: GCC2 (UniProt Q8CHG3); test: co-IP; co-IP of GCC2 with Rabs and with STING in HEK293T cells (Supplementary Fig. 7b-d); bait, tags and antibodies not shown; lysis in 20 mM Tris-HCl pH 7.4, 0.5% Nonidet-P40, 150 mM NaCl
# [2] = target: T1, FLAG-Sting (UniProt Q3TBT3); test: co-IP; HEK293T cells transfected with FLAG-Sting and HA-Rab GTPases, harvested 24 h later; lysis in 20 mM Tris-HCl pH 7.4, 0.5% Nonidet-P40, 150 mM NaCl; IP with the FLAG antibody on Protein G dynabeads overnight at 4 °C; western blot
# T1 sequence: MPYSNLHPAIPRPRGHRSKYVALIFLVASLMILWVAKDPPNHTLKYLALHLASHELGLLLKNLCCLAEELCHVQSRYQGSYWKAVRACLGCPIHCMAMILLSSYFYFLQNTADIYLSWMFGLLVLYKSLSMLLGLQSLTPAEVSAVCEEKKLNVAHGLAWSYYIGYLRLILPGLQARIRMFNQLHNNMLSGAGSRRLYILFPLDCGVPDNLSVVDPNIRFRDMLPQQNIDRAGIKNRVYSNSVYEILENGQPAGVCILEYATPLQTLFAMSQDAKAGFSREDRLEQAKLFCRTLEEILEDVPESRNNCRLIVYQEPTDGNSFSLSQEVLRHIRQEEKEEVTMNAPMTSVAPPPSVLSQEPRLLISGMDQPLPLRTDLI
binding [1],binding [2],Substance
binds,binds,HA-Rab2b (from UniProt P59279 1-216)
binds,binds,HA-Rab6b (from UniProt P61294 1-208)
